Test results: patent US8476408B2, “Unacylated ghrelin and analogs as therapeutic agents for vascular remodeling in diabetic patients and treatment of cardiovascular disease” (Alize Pharma SAS, priority 2008, dated 2013)

System: CAC membranes
Experiment: Saturation binding experiment on CAC membranes (Scatchard analysis)
Parameters: species or system human

For “1-NH2Gly-Ser-Ser-Phe-Leu-Ser-Pro-Glu-His-Gln-Arg-Val-Gln-Gln-Arg-Lys-Glu-Ser-Lys-Lys-Pro-Pro-Ala-Lys-Leu-Gln-Pro-Arg-28 (GSSFLSPEHQRVQQRKESKKPPAKLQPR; listed as Homo sapiens) [UAG]”, the Hill coefficient (Scatchard analysis) was about 1 and the “concentration at which specific binding reaches a maximum” value (saturable binding, FIG. 5B) was 2 nM.
